# Source: PubChem BioAssay (NCATS)
# Sequences of proteins named here, by UniProt entry; tags and fusion partners are left off. A change or cut given only in a name is not applied to a line headed by its entry.
# UniProt P11712, whole entry, looked up: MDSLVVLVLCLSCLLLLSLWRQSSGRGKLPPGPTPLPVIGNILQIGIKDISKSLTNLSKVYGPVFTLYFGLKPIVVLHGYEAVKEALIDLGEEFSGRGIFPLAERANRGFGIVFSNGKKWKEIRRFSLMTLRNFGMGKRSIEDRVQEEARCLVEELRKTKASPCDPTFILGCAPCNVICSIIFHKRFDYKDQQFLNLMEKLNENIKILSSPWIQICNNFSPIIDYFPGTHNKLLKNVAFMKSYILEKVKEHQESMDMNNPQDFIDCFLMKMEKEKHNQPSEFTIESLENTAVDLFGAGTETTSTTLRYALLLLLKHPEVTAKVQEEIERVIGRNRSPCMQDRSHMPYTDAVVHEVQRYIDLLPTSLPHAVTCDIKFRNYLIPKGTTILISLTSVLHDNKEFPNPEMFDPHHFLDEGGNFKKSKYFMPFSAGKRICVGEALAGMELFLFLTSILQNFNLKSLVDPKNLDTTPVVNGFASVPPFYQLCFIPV
# UniProt P08482: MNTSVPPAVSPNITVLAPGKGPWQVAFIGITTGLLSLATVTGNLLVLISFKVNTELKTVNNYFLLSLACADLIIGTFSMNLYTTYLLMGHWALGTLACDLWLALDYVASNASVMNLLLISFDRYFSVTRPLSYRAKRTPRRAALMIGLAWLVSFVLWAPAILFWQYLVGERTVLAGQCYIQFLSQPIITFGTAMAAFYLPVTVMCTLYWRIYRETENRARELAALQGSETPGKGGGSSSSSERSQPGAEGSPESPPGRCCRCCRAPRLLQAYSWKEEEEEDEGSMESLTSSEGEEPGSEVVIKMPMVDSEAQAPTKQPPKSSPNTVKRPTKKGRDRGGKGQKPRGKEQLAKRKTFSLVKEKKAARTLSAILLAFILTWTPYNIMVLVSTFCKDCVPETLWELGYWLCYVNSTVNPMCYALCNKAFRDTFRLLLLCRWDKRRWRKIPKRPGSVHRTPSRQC
# UniProt P08684, whole entry, looked up: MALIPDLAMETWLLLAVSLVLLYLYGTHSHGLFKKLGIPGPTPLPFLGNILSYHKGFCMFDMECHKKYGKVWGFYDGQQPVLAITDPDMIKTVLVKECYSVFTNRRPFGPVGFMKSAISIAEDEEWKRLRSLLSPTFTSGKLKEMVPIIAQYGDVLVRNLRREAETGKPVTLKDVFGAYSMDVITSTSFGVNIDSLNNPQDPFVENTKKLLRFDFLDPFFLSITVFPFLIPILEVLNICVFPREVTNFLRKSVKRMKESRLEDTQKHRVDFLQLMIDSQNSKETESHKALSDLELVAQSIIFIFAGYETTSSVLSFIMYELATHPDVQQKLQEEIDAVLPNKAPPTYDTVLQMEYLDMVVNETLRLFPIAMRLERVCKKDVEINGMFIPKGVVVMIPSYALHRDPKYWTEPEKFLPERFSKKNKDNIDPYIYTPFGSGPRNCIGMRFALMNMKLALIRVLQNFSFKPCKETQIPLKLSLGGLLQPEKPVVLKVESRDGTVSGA
# Inconclusive means that the source gave no clear call. Such entries were picked first, then a sample of the others. Entries that show only a call come without a potency. For some assays here: Potencies of inconclusive entries are doubtful fits and often do not repeat. Activity calls are given as the source filed them. Unless noted, calls come from the whole dose curve; as a rule, active = well fitted curve in the direction sought with a large enough effect; inconclusive = small, poorly fitted or top-dose-only effect, or another doubt; inactive = no such curve, though single readings can be large; an effect the other way counts as inactive or inconclusive.
# Columns and labels:
# [1] = Quantitative High-Throughput drug screen in 47 multiple myeloma cell lines against the NCATS MIPE library collection: KMM1_JCRB cell viability assay (AID 1918960); note: nearly all actives have a fitted effect of over 30% in size; note: potency is the fitted concentration of half-maximal effect
# In short: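 Each line was plated at 500 cells/well and treated 48 h with library drugs. Viability came from CellTiter-Glo luminescence relative to DMSO and cell-free medium controls.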
# [2] = Quantitative High-Throughput drug screen in 47 multiple myeloma cell lines against the NCATS MIPE library collection: KMS27_JCRB cell viability assay (AID 1918970); note: nearly all actives have a fitted effect of over 30% in size; note: potency is the fitted concentration of half-maximal effect
# In short: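 Luminescent ATP read-out (CellTiter-Glo, 5 min at room temperature) after 48 h compound exposure of 500 KMS27_JCRB cells per well; DMSO wells define full viability and media-only wells zero.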
# [3] = Quantitative High-Throughput drug screen in 47 multiple myeloma cell lines against the NCATS MIPE library collection: XG6_PLB cell viability assay (AID 1919865); note: nearly all actives have a fitted effect of over 40% in size; note: potency is the fitted concentration of half-maximal effect
# In short: (§1)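 Readout: median RLU from CellTiter-Glo after 5 min at room temperature. Preceding step was 48 h drug treatment of 500 cells/well at 37 °C, 5% CO2, with DMSO-only and media-only control wells.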
# [4] = qHTS for differential inhibitors of proliferation of Plasmodium falciparum line 3D7 (AID 1876); note: potency is the fitted concentration of half-maximal effect
# [5] = Validation screen for small molecules that induce DNA re-replication in MCF 10A normal breast cells (AID 463097); note: nearly all actives have a fitted effect of over 60% in size; note: potency is the fitted concentration of half-maximal effect
# In short: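 Read-out is Hoechst total nuclear intensity by fluorescence scanning imager, flagging increased high-DNA-content nuclei. Compounds were incubated with MCF 10A cells for 48 hr (37 C, 5% CO2) before 40 min staining.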
# [6] = qHTS of pediatric cancer cell lines to identify multiple opportunities for drug repurposing: Primary screen for NB-EBc1 cells (AID 1347095); note: potency is the fitted concentration of half-maximal effect
# In short: (§2)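 Quantitative HTS format: each compound titrated (MIPE 11 points from 0.78 nM, NPC 8 points from 0.59 nM) onto cells plated 5 hours earlier. After 48 h at 37 degrees C, CellTiter-Glo luminescence was recorded.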
# [7] = qHTS of pediatric cancer cell lines to identify multiple opportunities for drug repurposing: Primary screen for RD cells (AID 1347104); note: nearly all actives have a fitted effect of over 55% in size; note: potency is the fitted concentration of half-maximal effect
# In short: as §2
# [8] = Quantitative High-Throughput drug screen in 47 multiple myeloma cell lines against the NCATS MIPE library collection: NCIH929_DSMZ cell viability assay (AID 1918978); conditions: NCI-H929 myeloma viability, CellTiter-Glo ATP, 48 h; at 45.8 µM (top of the series) unless noted; note: nearly all actives have a fitted effect of over 35% in size
# In short: as §1
# [9] = Quantitative High-Throughput drug screen in 47 multiple myeloma cell lines against the NCATS MIPE library collection: MM1S_ATCC cell viability assay (AID 1918980); note: nearly all actives have a fitted effect of over 45% in size; note: potency is the fitted concentration of half-maximal effect
# In short: as §1
# [10] = qHTS of pediatric cancer cell lines to identify multiple opportunities for drug repurposing: Primary screen for SJ-GBM2 cells (AID 1347091); conditions: SJ-GBM2 viability, CellTiter-Glo luminescence, 48 h; at 46 µM (top of the series)
# In short: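 Eight- or eleven-point concentration series, 48 h treatment at 37 degrees C in growth media; readout CellTiter-Glo luminescence. Potency and efficacy were taken from the concentration-response curves.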
# [11] = qHTS of pediatric cancer cell lines to identify multiple opportunities for drug repurposing: Primary screen for A673 cells (AID 1347092); note: nearly all actives have a fitted effect of over 45% in size; note: potency is the fitted concentration of half-maximal effect
# In short: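 Cell viability of A673 measured by CellTiter-Glo ATP luminescence after 48 hours compound exposure. Dilution series spanned 0.78 nM to 46 µM (MIPE, 11-point) or 0.59 nM to 46 µM (NPC, 8-point); bortezomib 2.3 uM positive control.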
# [12] = qHTS of pediatric cancer cell lines to identify multiple opportunities for drug repurposing: Primary screen for control Hh wild type fibroblast cells (AID 1347106); note: nearly all actives have a fitted effect of over 55% in size; note: potency is the fitted concentration of half-maximal effect;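 for activity change, negative = cytotoxic: a drop in luminescence marks cytotoxicity and a rise apparent proliferation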
# In short: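 Cells (500-1,000/well) in growth media were settled 5 h at 37 degrees C, then given compounds for 48 h. Viability was read as CellTiter-Glo luminescence. Primary runs used MIPE at 11 points (0.78 nM-46 µM) and NPC at 8 points (0.59 nM-46 µM); follow-ups used 11 points.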
# [13] = Quantitative High-Throughput drug screen in 47 multiple myeloma cell lines against the NCATS MIPE library collection: KMS28BM_JCRB cell viability assay (AID 1919874); note: nearly all actives have a fitted effect of over 35% in size; note: potency is the fitted concentration of half-maximal effect
# In short: as §1
# [14] = qHTS Validation Assay to Find Inhibitors of Chronic Active B-Cell Receptor Signaling (AID 485345; active = well fitted curve in the direction sought with a large enough effect in the main read-out, with a control signal flat, not every such curve was filed as active; inconclusive = small, poorly fitted or top-dose-only effect, or effect the other way, or a change in a side signal; inactive = no such curve, though single readings can be large or run the other way); conditions: ABC-DLBCL cells, chronic BCR signaling reporter, CBG luciferase; at 46.1 µM (top of the series)
# In short: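 TMD8 ABC-DLBCL cells with dox-inducible green luciferase–IκBα fusion and red native luciferase; compounds 46 uM–3 nM, 4 h at 37C with doxycycline in 0.5% FBS IMDM. Green/red ratio normalized to basal and 10 uM MG-132.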
# [15] = molecular target: Cytochrome P450 2C9 (Homo sapiens) (UniProt P11712); assay: Cytochrome P450 family 2 subfamily C member 9 (CYP2C9) small molecule antagonists: luciferase biochemical (cell-free) qHTS assay (AID 1645842; active = well fitted curve in the direction sought with a large enough effect in the repeat runs; inconclusive = weak or mixed curves; inactive = no such curve, though single readings can be large; an effect the other way counts as inactive or inconclusive; note: nearly all actives have a fitted effect of over 55% in size; note: potency is the fitted concentration of half-maximal effect)
# In short: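 P450-Glo CYP2C9 system: proluciferin substrate with enzyme in mix containing 0.4% BSA, 10 min at room temperature, then NADPH regeneration solution added and incubated 1 h at 37C. Detection reagent stopped reaction; luminescence read after 20 min as RLU.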
# [16] = molecular target: Muscarinic acetylcholine receptor M1 (Rattus norvegicus) (UniProt P08482); assay: qHTS Assay for Antagonists of Acetylcholine Muscarinic M1 Receptor: Kinetic Measurement of Intracellular Calcium Response (AID 943); note: nearly all actives have a fitted effect of over 75% in size; note: potency is the fitted concentration of half-maximal effect;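 for activity change, negative = inhibition: Fluo-4 calcium signal as peak divided by basal fluorescence over 4 min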
# In short: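 Read-out: peak over basal Fluo-4 fluorescence, kinetic at 1 Hz for 4 min after EC80 carbachol (100 nM final). Rat M1-CHO cells, dye loaded 1 h at 37C, compound added 10 min before agonist.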
# [17] = qHTS for differential inhibitors of proliferation of Plasmodium falciparum line W2 (AID 1883); conditions: Potency: Plasmodium falciparum W2 proliferation inhibition;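 note: parasites grown with compound for 72 h before lysis and staining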; note: potency is the fitted concentration of half-maximal effect
# [18] = qHTS for differential inhibitors of proliferation of Plasmodium falciparum line HB3 (AID 1886); conditions: Potency: Plasmodium falciparum HB3 proliferation inhibition;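 note: parasites grown with compound for 72 h before SYBR Green readout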
# [19] = molecular target: Cytochrome P450 3A4 (Homo sapiens) (UniProt P08684); assay: qHTS Assay for Inhibitors and Substrates of Cytochrome P450 3A4 (AID 884); conditions: recombinant CYP3A4, Luciferin-PPXE luminescence; activity change, negative = inhibition: at 57.1 µM (top of the series); note: nearly all actives have a fitted effect of over 50% in size
# In short: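 Luminescent readout of luciferin produced by CYP3A4 (20 nM) dealkylation of Luciferin-PPXE, 25 uM (its KM). NADPH-driven reaction ran 60 min at RT after 10 min compound preincubation; data scaled to 57 uM ketoconazole as 100% inhibition.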
compound,measurement,setting,value
CC(=O)OCC(=O)[C@@]12OC(C)(C)O[C@H]1C[C@H]1[C@@H]3C[C@H](F)C4=CC(=O)C=C[C@]4(C)[C@@]3(F)[C@@H](O)C[C@@]12C,Potency,[1],"inconclusive: 0.332 µM [cytotoxic, full curve]"
same,Potency,[2],inactive
same,Potency,[3],inactive
CC(N)(Cc1ccc(O)cc1)C(=O)O (stereo not given),Potency,[4],inactive
same,Potency,[5],inactive
CC(=O)C1=C(O)C=C2Oc3c(C(C)=O)c(O)c(C)c(O)c3C2(C)C1=O (stereo not given),Potency,[6],"inconclusive: 13.2 µM [cytotoxic, partial curve]"
same,Potency,[7],"inconclusive: 2.09 µM [cytotoxic, full curve]"
same,Potency,[2],"inconclusive: 20.9 µM [cytotoxic, partial curve, poor fit]"
same,"viability, % of control",[8],inactive: 124%
same,Potency,[9],inactive
same,Potency,[3],"inconclusive: 0.0021 µM [rising, full curve, poor fit]"
CC(O)CCCCn1c(=O)c2c(ncn2C)n(C)c1=O (stereo not given),"activity change, negative = cytotoxic",[10],inactive: 26.1%
O=c1ccn([C@@H]2O[C@H](CO)[C@H](O)[C@@H]2F)c(=O)[nH]1,Potency,[11],active: 23.5 µM
same,Potency,[7],"inconclusive: 41.8 µM [cytotoxic, partial curve, poor fit]"
same,Potency,[12],"inconclusive: 33.2 µM [cytotoxic, single point]"
same,Potency,[2],"inconclusive: 1.32 µM [cytotoxic, partial curve, poor fit]"
C[C@]12CCC3=C4CCC(=O)C=C4CC[C@@H]3[C@H]1CC[C@@]2(O)CC#N,Potency,[1],"inconclusive: 37.2 µM [cytotoxic, single point]"
same,Potency,[9],inactive
same,Potency,[3],"inconclusive: 14.8 µM [cytotoxic, partial curve, poor fit]"
same,Potency,[13],inactive
CC(C)NC(=O)c1ccc(C=O)cc1,"activity change, negative = cytotoxic",[10],inactive: 27.7%
same,Potency,[6],inactive
Nc1nc2c(nc(Br)n2C2OC3COP(=O)(O)O[C@@H]3C2O)c(=O)[nH]1 (stereo not given in full),activity change,[14],inactive: -4.72%
C=CCN1C[C@H](C(=O)N(CCCN(C)C)C(=O)NCC)C[C@@H]2c3cccc4[nH]cc(c34)C[C@H]21,"activity change, negative = cytotoxic",[10],inactive: 2.74%
CC(=O)O[C@H]1C[C@@H]2CC[C@H]3[C@H]4C[C@H]([N+]5(C)CCCCC5)[C@@H](OC(C)=O)[C@@]4(C)CC[C@@H]3[C@@]2(C)C[C@H]1N1CCCCC1,Potency,[11],"inconclusive: 4.69 µM [cytotoxic, partial curve, poor fit]"
same,Potency,[12],inactive
same,Potency,[13],inactive
CC(=O)OCC(=O)[C@@]1(O)CC[C@H]2[C@@H]3CCC4=CC(=O)CC[C@]4(C)[C@@H]3C(=O)C[C@@]21C,Potency,[2],inactive
same,"viability, % of control",[8],inactive: 120%
same,Potency,[9],"inconclusive: 0.0059 µM [rising, full curve, poor fit]"
C[C@H]1C[C@@H]2[C@H]([C@@H](O)C[C@@]3(C)[C@H]2CC[C@]3(O)C(=O)CO)[C@@]2(C)C=CC(=O)C=C12,Potency,[11],inactive
same,Potency,[15],"inconclusive: 34.7 µM [inhibitor, single point]"
Nc1ncnc2c1nc(Sc1ccc(Cl)cc1)n2[C@H]1OC2COP(=O)(O)O[C@@H]2C1O (stereo not given in full),activity change,[14],inconclusive: -33.1%
N#CC1(c2ccc(F)cc2)CCC(=O)CC1,Potency,[12],inactive
Cc1cccc(C(=O)NCN2CCN(c3ccccc3C#N)CC2)c1,Potency,[16],inactive
same,Potency,[17],"inconclusive: 7.08 µM [inhibitor, partial curve]"
same,Potency,[18],inactive
same,Potency,[5],"inconclusive: 20 µM [activator, single point]"
C[Se]CCC(N)C(=O)O (stereo not given),Potency,[1],inactive
same,"viability, % of control",[8],inactive: 88.6% [at 92.2 µM]
same,Potency,[9],inactive
same,Potency,[3],"inconclusive: 0.0382 µM [rising, full curve]"
same,Potency,[13],"inconclusive: 0.0061 µM [rising, full curve, poor fit]"
CCCCC[C@H](CC(=O)NO)C(=O)N[C@H](C(=O)N1CCC[C@H]1CO)C(C)C,Potency,[4],active: 1.78 µM
same,Potency,[5],inactive
CCCc1ncc(C(=O)O)s1,Potency,[15],inactive
NCCS,Potency,[16],inactive
same,Potency,[12],inactive
O=C(O)c1ccc[n+]([O-])c1,Potency,[6],inactive
Nc1ccc(C(=O)O)cc1,"activity change, negative = cytotoxic",[10],inactive: 25.3%
COc1ccc(C(=O)NCc2ccc(OCCN(C)C)cc2)cc1OC,"activity change, negative = cytotoxic",[10],inactive: 0.742%
same,Potency,[6],inactive
same,Potency,[7],inactive
O=C(Oc1ccccc1C(=O)O)c1ccccc1O,Potency,[19],inactive
same,Potency,[15],inactive
O=C(O)c1ccc(OCCN2CCCCC2)cc1,Potency,[15],inactive
C[N+](C)(C)CC=O,Potency,[16],"inconclusive: 25.1 µM [inhibitor, partial curve, poor fit]"
same,Potency,[17],inactive
same,Potency,[18],inactive
CN1[C@H]2CC(OC(=O)[C@@H](CO)c3ccccc3)C[C@H]1[C@H]1O[C@H]12 (stereo not given in full),Potency,[11],inactive
same,Potency,[1],inactive
same,"viability, % of control",[8],inactive: 108% [at 23.2 µM]
same,Potency,[9],inactive
same,Potency,[3],inactive
same,Potency,[13],inactive

# Some of the entries above in a different format:
compound | measurement | setting | value
O=c1ccn([C@@H]2O[C@H](CO)[C@H](O)[C@@H]2F)c(=O)[nH]1 | Potency | [7] | inconclusive: 41.8 µM [cytotoxic, partial curve, poor fit]
C[Se]CCC(N)C(=O)O (stereo not given) | viability, % of control | [8] | inactive: 88.6% [at 92.2 µM]
CCCCC[C@H](CC(=O)NO)C(=O)N[C@H](C(=O)N1CCC[C@H]1CO)C(C)C | Potency | [5] | inactive
C[N+](C)(C)CC=O | Potency | [18] | inactive
